Legend:
[1] = Evaluation by trained and/or certified flavor or fragrance chemists or master perfumers; categorization by commercial prospect; details: category of commercial prospect, (A) highest > (B) > (C) > (D) lowest; (E) requires further study
odor evaluation panel = assay: Odor evaluation panel rating of odorants by Rate-All-That-Apply (RATA) method with 55-word odor lexicon, plus intensity and pleasantness; set-up: species or system human; details: for Floral: mean panelist score for odor label floral (RATA); for Fruity: mean panelist score for odor label fruity (RATA); for Spicy: mean panelist score for odor label spicy (RATA); for Sweet: mean panelist score for odor label sweet (RATA); for Pleasantness: mean panelist score for odor pleasantness

| Compound | Rating [1] | Floral (odor evaluation panel) | Fruity (odor evaluation panel) | Spicy (odor evaluation panel) | Sweet (odor evaluation panel) | Pleasantness (odor evaluation panel) |
| --- | --- | --- | --- | --- | --- | --- |
| CC1CC(=O)OC1=O (stereo not drawn) [Compound 116, 3-methyloxolane-2,5-dione] | (D) | 0.028 | 0 | 0.306 | 0.556 |  |
| C=C(C)C(=O)OC1CC2CC1C1CCCC21 (stereo not drawn) [Compound 118, 8-tricyclo[5.2.1.02,6]decanyl 2-methylprop-2-enoate] | (A) | 0.781 | 1.375 | 0 | 1.562 | 6.356 |
| COC(=O)c1ccnc(C#N)c1 [Compound 120, methyl 2-cyanopyridine-4-carboxylate] | (D) | 0 | 0.028 | 0 | 0.083 |  |
| CC(=O)c1cccc(C#N)c1 [Compound 121, 3-acetylbenzonitrile] | (C) | 0.486 | 0.229 | 0.314 | 1.029 | 4.283 |
| C/C=C1\C[C@@H]2C=C[C@H]1C2 [Compound 125, (1R,4R,5E)-5-ethylidenebicyclo[2.2.1]hept-2-ene] | (C) | 0.139 | 0.556 | 0.194 | 0.333 |  |
| C1=C(N2CCOCC2)CCCC1 [Compound 129, 4-(cyclohexen-1-yl)morpholine] | (D) | 0 | 0 | 0.3 | 0.333 | 0.897 |
| c1scc2c1OCCO2 [Compound 131, 2,3-dihydrothieno[3,4-b][1,4]dioxine] | (D) | 0.457 | 0 | 0.4 | 0.143 | 3.394 |
| CCOC(=O)C[C@H](O)CC#N [Compound 132, ethyl (3R)-4-cyano-3-hydroxybutanoate] | (C) | 0.281 | 0.562 | 0 | 0.594 | 6.103 |
| Cc1cnc(C)[nH]1 [Compound 133, 2,5-dimethyl-1H-imidazole] | (D) | 0 | 0 | 0.094 | 0.312 | 6.638 |
| CN(C)C(OC(C)(C)C)N(C)C [Compound 136, N,N,N′,N′-tetramethyl-1-[(2-methylpropan-2-yl)oxy]methanediamine] | (D) | 0.125 | 0 | 0 | 0.094 | 2.919 |
| N#CC/C=C/CC#N [Compound 137, (E)-hex-3-enedinitrile] | (D) | 0.083 | 0.083 | 0 | 0.111 |  |
| Cc1c[nH]c(C)c1 [Compound 139, 2,4-dimethyl-1H-pyrrole] | (D) | 0.188 | 0.375 | 0.062 | 0.656 | 5.434 |
| COC(=O)c1cc(C)on1 [Compound 140, methyl 5-methyl-1,2-oxazole-3-carboxylate] | (D) | 0 | 0.406 | 0.062 | 0.344 | 5.594 |
| CCCC(O)C1CCCCC1 (stereo not drawn) [Compound 141, 1-cyclohexylbutan-1-ol] | (A) | 0.531 | 2.375 | 0.031 | 1.875 | 6.747 |
| CN(C)CC[C@H](O)c1cccs1 [Compound 143, (1S)-3-(dimethylamino)-1-thiophen-2-ylpropan-1-ol] | (D) | 0.182 | 0.424 | 0.03 | 0.848 | 4.852 |
| CC1(C)[C@@H]2C[C@@H](O)[C@@](C)(O)[C@H]1C2 [Compound 144, (1S,2S,3R,5S)-2,6,6-trimethylbicyclo[3.1.1]heptane-2,3-diol] | (D) | 0.1 | 0.033 | 0 | 0.233 | 4.893 |
| Cn1ccnc1C=O [Compound 146, 1-methylimidazole-2-carbaldehyde] | (D) | 0.242 | 0.061 | 0.242 | 0.485 | 4.824 |
| CC(C)OC(=O)C1(C(=O)OC(C)C)CC(=O)C1 [Compound 148, dipropan-2-yl 3-oxocyclobutane-1,1-dicarboxylate] | (D) | 0.25 | 0.156 | 0.125 | 0.25 | 5.334 |
| C1=CCC2CC=CC2C1 (stereo not drawn) [Compound 149, 3a,4,7,7a-tetrahydro-1H-indene] | (D) | 0.2 | 0.029 | 0.114 | 0.171 | 4.943 |

| Compound | Rating [1] | Floral (odor evaluation panel) | Fruity (odor evaluation panel) | Spicy (odor evaluation panel) | Sweet (odor evaluation panel) | Pleasantness (odor evaluation panel) |
| --- | --- | --- | --- | --- | --- | --- |
| CC(C)(C)C1CCCCC1 [Compound 150, tert-butylcyclohexane] | (D) | 0.2 | 0.233 | 0.133 | 0.5 | 5.42 |
| Cn1cc(C=O)c2ccccc21 [Compound 152, 1-methylindole-3-carbaldehyde] | (D) | 0.235 | 0 | 0.235 | 0.441 | 4.938 |
| CC1(C)CCCC(=O)C1 [Compound 153, 3,3-dimethylcyclohexan-1-one] | (C) | 0.333 | 0.583 | 0 | 0.611 |  |
| CC(C)(C)OC(=O)C(C)(C)C [Compound 157, tert-butyl 2,2-dimethylpropanoate] | (D) | 0.281 | 0 | 0 | 0.75 | 5.925 |
| Cc1ccc2cccc(O)c2n1 [Compound 161, 2-methylquinolin-8-ol] | (D) | 0.114 | 0 | 0.286 | 0.6 | 4.943 |
| c1ccc(-n2cccn2)cc1 [Compound 163, 1-phenylpyrazole] | (D) | 0.265 | 0.176 | 0.176 | 0.559 | 4.597 |
| CSc1nccs1 [Compound 164, 2-methylsulfanyl-1,3-thiazole] | (C) | 0 | 0 | 0.125 | 0.344 | 5.719 |
| CCOC=Nc1ccccc1 [Compound 165, ethyl N-phenylmethanimidate] | (B) | 0.278 | 1.194 | 0 | 1.278 |  |
| O=Cc1ccc2ccccc2n1 [Compound 168, quinoline-2-carbaldehyde] | (D) | 0.125 | 0 | 0.594 | 0.125 | 3.25 |
| CC1CN(C)CCC1=O (stereo not drawn) [Compound 171, 1,3-dimethylpiperidin-4-one] | (D) | 0 | 0 | 0 | 0.143 | 2.514 |
| C=CC(=O)OCCCCCCCC [Compound 173, octyl prop-2-enoate] | (D) | 0.75 | 1.219 | 0.094 | 0.781 | 5.153 |
| Cn1sccc1=O [Compound 175, 2-methyl-1,2-thiazol-3-one] | (D) | 0.281 | 0.219 | 0.125 | 0.094 | 4.922 |
| N#Cc1ccccn1 [Compound 177, pyridine-2-carbonitrile] | (B) | 0.161 | 0.806 | 0.871 | 1.161 | 5.694 |
| Nc1ccc(S)cc1 [Compound 179, 4-aminobenzenethiol] | (D) | 0 | 0.094 | 0.031 | 0.125 | 4.991 |
| CC(=O)CC(=O)N(C)C [Compound 181, N,N-dimethyl-3-oxobutanamide] | (D) | 0.182 | 0.212 | 0.091 | 0.455 | 4.176 |
| CC1=CC(=O)C(C)=C(C)C1=O [Compound 183, 2,3,5-trimethylcyclohexa-2,5-diene-1,4-dione] | (B) | 0.469 | 0.188 | 0.375 | 0.844 | 4.166 |
| OC1CCCCCCC1 [Compound 184, cyclooctanol] | (C) | 0.061 | 0.758 | 0 | 0.818 | 5.788 |
| CC(CCN(C)C)N(C)C (stereo not drawn) [Compound 185, N,N,N,N-tetramethylbutane-1,3-diamine] | (D) | 0.097 | 0.065 | 0 | 0.097 | 2.529 |
